# This is one part of the list. The data scatter; read single values as rough.
# Amino acid sequences for entries named in this document (tags omitted). A change or cut given only in a name is not applied to a line headed by its entry. Residues count along the entry.
# UniProt O76071: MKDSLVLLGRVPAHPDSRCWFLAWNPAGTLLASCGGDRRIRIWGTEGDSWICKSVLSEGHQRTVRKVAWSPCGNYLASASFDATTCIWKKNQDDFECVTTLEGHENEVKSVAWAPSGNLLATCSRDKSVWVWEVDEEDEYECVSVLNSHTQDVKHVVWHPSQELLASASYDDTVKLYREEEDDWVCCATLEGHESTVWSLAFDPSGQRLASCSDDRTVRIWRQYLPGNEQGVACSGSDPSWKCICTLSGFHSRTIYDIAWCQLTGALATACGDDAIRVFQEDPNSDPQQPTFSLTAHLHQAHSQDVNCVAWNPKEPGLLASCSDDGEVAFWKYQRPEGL
# UniProt Q9BXS0: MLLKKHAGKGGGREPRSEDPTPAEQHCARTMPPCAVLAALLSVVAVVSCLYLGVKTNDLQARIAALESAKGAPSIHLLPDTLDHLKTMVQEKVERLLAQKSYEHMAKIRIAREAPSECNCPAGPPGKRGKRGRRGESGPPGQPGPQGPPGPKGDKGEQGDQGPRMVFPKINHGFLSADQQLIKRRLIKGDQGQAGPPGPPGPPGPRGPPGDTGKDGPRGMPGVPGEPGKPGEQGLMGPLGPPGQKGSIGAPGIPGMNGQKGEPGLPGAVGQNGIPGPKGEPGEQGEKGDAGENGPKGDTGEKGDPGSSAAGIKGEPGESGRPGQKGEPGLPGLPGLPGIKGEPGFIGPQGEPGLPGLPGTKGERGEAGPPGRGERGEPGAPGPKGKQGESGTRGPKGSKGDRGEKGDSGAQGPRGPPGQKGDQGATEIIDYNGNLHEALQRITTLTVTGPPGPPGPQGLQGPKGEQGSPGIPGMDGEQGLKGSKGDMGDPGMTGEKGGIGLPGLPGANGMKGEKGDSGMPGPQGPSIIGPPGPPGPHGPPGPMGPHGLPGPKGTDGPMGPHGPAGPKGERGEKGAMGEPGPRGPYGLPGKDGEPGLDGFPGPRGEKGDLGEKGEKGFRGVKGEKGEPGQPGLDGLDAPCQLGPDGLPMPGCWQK
# UniProt P0C7P0: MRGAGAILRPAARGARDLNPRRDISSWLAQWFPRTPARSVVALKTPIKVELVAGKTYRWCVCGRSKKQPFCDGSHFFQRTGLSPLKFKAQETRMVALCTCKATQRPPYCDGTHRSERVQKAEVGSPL
# UniProt Q9P2E5: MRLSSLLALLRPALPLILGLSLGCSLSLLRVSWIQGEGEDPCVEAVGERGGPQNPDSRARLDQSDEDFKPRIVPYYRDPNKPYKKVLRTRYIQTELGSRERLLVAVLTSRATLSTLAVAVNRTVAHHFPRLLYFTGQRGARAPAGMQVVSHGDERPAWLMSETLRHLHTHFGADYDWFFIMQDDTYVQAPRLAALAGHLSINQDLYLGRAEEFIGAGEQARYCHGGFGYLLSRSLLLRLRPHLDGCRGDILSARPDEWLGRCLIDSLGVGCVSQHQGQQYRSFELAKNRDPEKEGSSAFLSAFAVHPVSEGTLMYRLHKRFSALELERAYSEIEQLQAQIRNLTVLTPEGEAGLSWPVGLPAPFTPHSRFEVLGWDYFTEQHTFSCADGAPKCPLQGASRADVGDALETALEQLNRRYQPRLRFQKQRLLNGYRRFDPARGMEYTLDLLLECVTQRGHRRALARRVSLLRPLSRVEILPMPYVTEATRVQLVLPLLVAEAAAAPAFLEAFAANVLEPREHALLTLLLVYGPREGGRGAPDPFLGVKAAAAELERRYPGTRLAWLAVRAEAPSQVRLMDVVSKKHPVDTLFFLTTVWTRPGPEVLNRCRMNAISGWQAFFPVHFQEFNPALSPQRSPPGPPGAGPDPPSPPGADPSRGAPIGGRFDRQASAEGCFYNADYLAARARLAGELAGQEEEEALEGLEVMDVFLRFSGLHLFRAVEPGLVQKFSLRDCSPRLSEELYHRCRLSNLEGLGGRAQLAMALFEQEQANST
# UniProt Q99439: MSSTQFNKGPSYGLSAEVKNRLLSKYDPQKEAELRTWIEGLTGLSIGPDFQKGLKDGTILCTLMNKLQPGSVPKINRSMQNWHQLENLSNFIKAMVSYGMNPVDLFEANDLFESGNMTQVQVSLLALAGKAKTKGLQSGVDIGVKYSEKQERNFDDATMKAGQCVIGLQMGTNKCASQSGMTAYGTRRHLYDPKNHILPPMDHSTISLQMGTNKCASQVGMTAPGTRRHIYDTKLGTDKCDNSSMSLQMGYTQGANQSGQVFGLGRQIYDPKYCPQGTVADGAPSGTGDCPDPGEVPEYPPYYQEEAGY
# UniProt Q9ULM6: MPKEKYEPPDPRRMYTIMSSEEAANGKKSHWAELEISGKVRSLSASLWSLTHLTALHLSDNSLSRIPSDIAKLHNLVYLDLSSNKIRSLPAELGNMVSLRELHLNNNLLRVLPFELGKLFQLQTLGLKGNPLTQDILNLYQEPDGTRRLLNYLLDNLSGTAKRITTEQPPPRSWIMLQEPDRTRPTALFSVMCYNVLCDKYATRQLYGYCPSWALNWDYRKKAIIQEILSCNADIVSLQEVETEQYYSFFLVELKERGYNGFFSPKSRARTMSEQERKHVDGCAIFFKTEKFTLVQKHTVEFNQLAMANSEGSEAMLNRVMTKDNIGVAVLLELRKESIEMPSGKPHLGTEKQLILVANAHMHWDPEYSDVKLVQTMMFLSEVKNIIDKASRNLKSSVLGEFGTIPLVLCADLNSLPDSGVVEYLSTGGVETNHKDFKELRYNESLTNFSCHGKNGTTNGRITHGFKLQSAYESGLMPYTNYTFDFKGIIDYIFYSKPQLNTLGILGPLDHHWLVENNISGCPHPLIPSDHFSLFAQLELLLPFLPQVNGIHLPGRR
# UniProt Q5RI15: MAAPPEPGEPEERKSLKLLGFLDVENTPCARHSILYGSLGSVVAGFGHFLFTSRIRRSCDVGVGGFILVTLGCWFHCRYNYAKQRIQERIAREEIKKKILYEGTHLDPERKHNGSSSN
# UniProt P49761: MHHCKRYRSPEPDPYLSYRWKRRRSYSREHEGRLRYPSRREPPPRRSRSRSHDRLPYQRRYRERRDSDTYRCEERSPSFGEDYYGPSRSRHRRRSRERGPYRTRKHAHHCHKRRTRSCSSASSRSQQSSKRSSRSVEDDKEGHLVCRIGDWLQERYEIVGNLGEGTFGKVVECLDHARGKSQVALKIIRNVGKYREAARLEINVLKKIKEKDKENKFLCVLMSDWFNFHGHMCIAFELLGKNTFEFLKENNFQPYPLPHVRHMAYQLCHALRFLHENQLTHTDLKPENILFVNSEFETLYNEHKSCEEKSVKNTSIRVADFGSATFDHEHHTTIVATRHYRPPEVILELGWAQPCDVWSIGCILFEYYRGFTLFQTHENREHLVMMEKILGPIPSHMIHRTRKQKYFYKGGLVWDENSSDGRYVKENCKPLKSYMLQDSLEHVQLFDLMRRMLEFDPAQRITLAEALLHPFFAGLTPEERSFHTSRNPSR
# UniProt Q14008, 1103-1125: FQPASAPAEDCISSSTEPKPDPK
# UniProt Q9Y259: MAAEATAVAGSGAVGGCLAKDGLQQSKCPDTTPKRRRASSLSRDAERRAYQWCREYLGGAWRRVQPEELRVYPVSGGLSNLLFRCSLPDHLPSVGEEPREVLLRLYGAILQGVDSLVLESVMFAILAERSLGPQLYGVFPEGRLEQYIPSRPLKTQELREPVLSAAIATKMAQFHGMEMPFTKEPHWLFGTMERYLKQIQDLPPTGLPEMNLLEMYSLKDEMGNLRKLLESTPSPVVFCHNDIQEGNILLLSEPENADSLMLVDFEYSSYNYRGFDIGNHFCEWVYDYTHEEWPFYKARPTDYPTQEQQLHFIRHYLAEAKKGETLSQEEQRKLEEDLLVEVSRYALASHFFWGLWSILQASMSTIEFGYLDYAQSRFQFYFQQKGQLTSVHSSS
# UniProt Q9NZZ3: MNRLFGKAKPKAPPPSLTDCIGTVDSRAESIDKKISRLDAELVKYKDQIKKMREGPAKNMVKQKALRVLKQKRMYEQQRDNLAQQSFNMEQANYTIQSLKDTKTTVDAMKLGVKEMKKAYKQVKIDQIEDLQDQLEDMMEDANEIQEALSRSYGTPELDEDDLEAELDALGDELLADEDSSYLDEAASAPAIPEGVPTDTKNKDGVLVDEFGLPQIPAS
# UniProt Q8NI60: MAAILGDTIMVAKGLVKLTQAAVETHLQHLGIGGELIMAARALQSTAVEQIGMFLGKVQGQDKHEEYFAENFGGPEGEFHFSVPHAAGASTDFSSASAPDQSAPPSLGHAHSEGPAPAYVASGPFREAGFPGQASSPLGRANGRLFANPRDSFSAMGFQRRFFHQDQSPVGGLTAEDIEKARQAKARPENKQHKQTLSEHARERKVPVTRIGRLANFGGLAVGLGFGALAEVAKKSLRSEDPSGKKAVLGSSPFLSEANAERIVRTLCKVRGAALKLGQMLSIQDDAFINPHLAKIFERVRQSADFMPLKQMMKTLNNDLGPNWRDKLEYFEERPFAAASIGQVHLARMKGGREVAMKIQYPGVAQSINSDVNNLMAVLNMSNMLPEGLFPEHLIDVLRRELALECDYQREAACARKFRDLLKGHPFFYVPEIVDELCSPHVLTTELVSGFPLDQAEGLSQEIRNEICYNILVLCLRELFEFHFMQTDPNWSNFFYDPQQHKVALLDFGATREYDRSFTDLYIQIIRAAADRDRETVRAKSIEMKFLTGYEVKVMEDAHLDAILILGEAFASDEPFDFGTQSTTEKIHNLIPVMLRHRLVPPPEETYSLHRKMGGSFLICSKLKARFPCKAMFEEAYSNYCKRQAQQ
# UniProt P53675: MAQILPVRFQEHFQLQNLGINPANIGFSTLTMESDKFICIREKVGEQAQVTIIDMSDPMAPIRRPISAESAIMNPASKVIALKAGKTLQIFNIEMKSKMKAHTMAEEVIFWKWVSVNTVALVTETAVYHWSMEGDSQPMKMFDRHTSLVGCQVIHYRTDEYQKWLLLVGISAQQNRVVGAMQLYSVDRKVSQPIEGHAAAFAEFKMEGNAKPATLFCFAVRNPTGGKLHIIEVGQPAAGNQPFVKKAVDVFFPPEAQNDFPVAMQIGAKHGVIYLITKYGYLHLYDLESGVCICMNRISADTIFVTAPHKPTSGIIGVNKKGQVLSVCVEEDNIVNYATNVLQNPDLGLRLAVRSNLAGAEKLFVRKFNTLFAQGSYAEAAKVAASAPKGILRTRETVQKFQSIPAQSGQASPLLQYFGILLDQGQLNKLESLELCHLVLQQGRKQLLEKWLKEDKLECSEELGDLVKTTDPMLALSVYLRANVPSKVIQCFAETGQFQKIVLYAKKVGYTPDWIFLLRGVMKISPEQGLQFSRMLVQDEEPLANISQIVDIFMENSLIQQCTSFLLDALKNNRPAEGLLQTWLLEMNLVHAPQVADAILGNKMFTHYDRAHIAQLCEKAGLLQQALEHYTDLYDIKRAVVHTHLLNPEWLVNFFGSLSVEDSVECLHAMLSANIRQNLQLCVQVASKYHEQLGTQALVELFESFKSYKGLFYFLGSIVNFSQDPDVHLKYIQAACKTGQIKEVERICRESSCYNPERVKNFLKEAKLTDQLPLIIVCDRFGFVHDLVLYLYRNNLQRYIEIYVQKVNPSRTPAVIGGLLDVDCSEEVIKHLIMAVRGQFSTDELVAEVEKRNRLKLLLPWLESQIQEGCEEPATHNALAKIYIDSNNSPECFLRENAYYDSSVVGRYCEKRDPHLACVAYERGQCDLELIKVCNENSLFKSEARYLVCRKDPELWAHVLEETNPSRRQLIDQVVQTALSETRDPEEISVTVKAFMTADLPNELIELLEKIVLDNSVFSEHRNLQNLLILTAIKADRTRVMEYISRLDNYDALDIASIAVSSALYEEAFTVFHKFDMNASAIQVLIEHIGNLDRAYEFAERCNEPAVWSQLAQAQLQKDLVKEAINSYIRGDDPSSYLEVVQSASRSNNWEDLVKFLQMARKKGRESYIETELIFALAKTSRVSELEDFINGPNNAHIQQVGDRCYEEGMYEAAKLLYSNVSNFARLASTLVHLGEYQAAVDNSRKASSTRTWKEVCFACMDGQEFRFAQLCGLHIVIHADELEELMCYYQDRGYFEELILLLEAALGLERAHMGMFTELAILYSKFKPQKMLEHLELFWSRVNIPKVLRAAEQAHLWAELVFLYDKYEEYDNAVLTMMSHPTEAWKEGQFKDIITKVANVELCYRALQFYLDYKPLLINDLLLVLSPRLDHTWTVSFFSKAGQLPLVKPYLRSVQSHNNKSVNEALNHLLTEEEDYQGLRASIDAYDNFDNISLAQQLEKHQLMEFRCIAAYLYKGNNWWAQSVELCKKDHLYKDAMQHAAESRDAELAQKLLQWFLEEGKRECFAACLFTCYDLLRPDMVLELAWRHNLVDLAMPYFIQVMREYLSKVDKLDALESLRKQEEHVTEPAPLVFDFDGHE
# UniProt Q9GZQ3: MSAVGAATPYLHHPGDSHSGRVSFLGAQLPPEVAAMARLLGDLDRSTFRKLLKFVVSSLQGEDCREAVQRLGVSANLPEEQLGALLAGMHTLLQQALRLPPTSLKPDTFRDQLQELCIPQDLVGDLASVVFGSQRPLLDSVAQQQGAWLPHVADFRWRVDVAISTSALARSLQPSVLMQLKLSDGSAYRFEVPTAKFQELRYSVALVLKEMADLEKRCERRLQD
# Compound: ClCC(=O)N[C@H]1CCCc2ccccc12
# Assay: log2 mean competition ratio of IA-DTB cysteine labelling (DMSO/compound) (log2 ratio); higher = stronger cysteine engagement by compound
# Conditions: 50 µM; treatment time: 4 h; cell line lysate: HEK293T
# Protocol: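 IA-DTB competitive cysteine chemoproteomics in HEK293T RIPA lysate. Lysates were treated with compound 29 or 30 at 50 or 200 µM for 4 h, then IA-DTB (500 µM, 1 h), trypsin-digested, NeutrAvidin-enriched and analysed by diaPASEF. Competition ratio = intensity DMSO / intensity compound (n=4 treated, n=64 DMSO); binding: mean log2 CR ≥ 1 and p ≤ 0.05 plus QC filters. Target is the cysteine site.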
row,Target,log2 mean competition ratio
1,CIAO1 C212 (UniProt O76071),-0.236
2,COL25A1 C27 (UniProt Q9BXS0),-0.104
3,CISD3 C109 (UniProt P0C7P0),0.361
4,CHPF2 C42 (UniProt Q9P2E5),-0.0503
5,CHD4 C452,0.111
6,CLUH C184,-0.723
7,CNN2 C175 (UniProt Q99439),0.371
8,CNOT6 C451 (UniProt Q9ULM6),-0.108
9,COX20 C29 (UniProt Q5RI15),-0.12
10,CLK3 C321 (UniProt P49761),0.287
11,CPNE3 C249 (UniProt O75131),0.211
12,CKAP5 C1113 (UniProt Q14008),-0.353
13,CNP C111 (UniProt P09543),-0.184
14,CNN3 C59 (UniProt Q15417),-0.0445
15,CPSF4 C110 (UniProt O95639),-0.535
16,CHKB C17 (UniProt Q9Y259),-0.547
17,CHMP5 C20 (UniProt Q9NZZ3),0.328
18,COQ8A C641 (UniProt Q8NI60),0.539
19,CLTCL1 C892 (UniProt P53675),0.111
20,COMMD5 C64 (UniProt Q9GZQ3),0.22

# Same assay, conditions: 200 µM; treatment time: 4 h; cell line lysate: HEK293T
row,Target,log2 mean competition ratio
1,CIAO1 C212 (UniProt O76071),0.112
2,COL25A1 C27 (UniProt Q9BXS0),0.328
3,CISD3 C109 (UniProt P0C7P0),-0.0406
4,CHPF2 C42 (UniProt Q9P2E5),0.466
5,CHD4 C452,-0.026
6,CLUH C184,-0.193
7,CNN2 C175 (UniProt Q99439),0.053
8,CNOT6 C451 (UniProt Q9ULM6),0.0179
9,COX20 C29 (UniProt Q5RI15),0.49
10,CLK3 C321 (UniProt P49761),-0.00487
11,CPNE3 C249 (UniProt O75131),-0.029
12,CKAP5 C1113 (UniProt Q14008),-0.209
13,CNP C111 (UniProt P09543),0.251
14,CNN3 C59 (UniProt Q15417),-0.303
15,CPSF4 C110 (UniProt O95639),-0.351
16,CHKB C17 (UniProt Q9Y259),0.248
17,CHMP5 C20 (UniProt Q9NZZ3),0.236
18,COQ8A C641 (UniProt Q8NI60),0.178
19,CLTCL1 C892 (UniProt P53675),0.378
20,COMMD5 C64 (UniProt Q9GZQ3),-0.0546
